The term AC50 denotes the concentration at which the activity in the assay is half-maximal.

A short description of this assay: qHTS Assay for Lipid Storage Modulators in Drosophila S3 Cells.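 As to cell number change: cells counted by Cell Tracker Red CMTPX staining in the red channel.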 As to conditions: BODIPY lipid droplet fluorescence, 18-24 h; for cell number change: measured here: cell count max response, cells fed with added oleic acid. A digest of the protocol: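 Drosophila S3 cells loaded with oleic acid (400 uM, as added) and compounds at several concentrations; lipid droplets imaged by 488-nm laser-scanning cytometry, 500–530 nm intensity and object ratio to cell channel. Percent activity normalized to 20 uM Triacsin C.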
Background: In qHTS, concentration-response curves come from the screen itself.

The mark [1] stands for this setting: measured here: lipid fluorescence (Fed channel) AC50, cells fed with added oleic acid.
[2] abbreviates: measured here: cell number channel AC50, cells fed with added oleic acid.

Structures are written as SMILES. Some of the results follow. The main result of the screen is listed elsewhere. These columns were measured beside it and carry no call. The list favours compounds with an active or inconclusive main result. Words in brackets tell the shape of the fitted curve; partial curves, single points and poor fits give uncertain potencies.

Turning to `Cc1c(C(=O)O)sc2nc(-c3cccs3)cc(C(F)(F)F)c12`, the cell number change stood at 13.5%. For the same compound, the AC50 under setting [1] is 29.1 µM [rising, single point]. For the compound `O=C(NCCOC(=O)c1ccc(F)cc1)c1ccc(F)cc1`, the cell number change is 23.4%. Besides, under setting [1], the concentration at half-maximal activity (AC50) was 29.1 µM [rising, single point]. Take `O=C(Oc1ccc2ccc(=O)oc2c1)N1CCOCC1`: the cell number change is 2.59%. The half-maximal activity concentration (AC50) under setting [1] is 3.66 µM [rising, single point]. Take `Cc1ccc(S(=O)(=O)CCC(=O)Nc2nnc(-c3ccc(F)cc3)o2)cc1`: the cell number change came to 50.6%. Further, the AC50 under setting [2] was 16.4 µM [rising, single point].

With `Brc1ccc(CNCCCSc2ncccn2)cc1`, the cell number change was -4.7%. For the same compound, under setting [1], the half-maximal activity concentration (AC50) is 2.31 µM [rising, partial curve, poor fit]. `OCCNc1ncnc2c1c(-c1ccccc1)c(-c1ccccc1)n2Cc1ccco1`: the AC50 under setting [1] was 0.58 µM [falling, single point]. `O=C(COC(=O)/C=C/c1cccc(C(F)(F)F)c1)NCc1ccccc1`: the cell number change is -7.51%. Also, under setting [2], the AC50 is 0.259 µM [falling, full curve, poor fit]. Take `O=C(c1cc2c(s1)-c1ccccc1OC2)N1CCc2ccccc2C1`: under setting [1], the AC50 was 6.51 µM [rising, full curve]. Turning to `CC1CN(c2cc(=O)n(-c3cccc(Br)c3)c(=O)[nH]2)CC(C)O1` (configuration not stated), the cell number change was -82.9%. The half-maximal activity concentration (AC50) under setting [2] is 25.9 µM [falling, partial curve, poor fit]. In addition, the AC50 under setting [1] was 5.17 µM [falling, full curve]. `CN1C(C(=O)NCC2CC2)CC2Cn3c(nc4cc(Cl)c(Cl)cc43)C21` (configuration not stated): the cell number change turned out to be 19.7%. As for `CCC(C)c1ccc2oc(-c3ccc(NC(=O)Cn4cnc5c(=O)n(C)c(=O)n(C)c54)cc3)nc2c1` (configuration not stated), the half-maximal activity concentration (AC50) is 0.461 µM [rising, full curve] under setting [2] and 1.3 µM [rising, full curve] under setting [1]. As for `O=C(O)/C=C\C(=O)Nc1cc(O)ccc1[N+](=O)[O-]`, the cell number change came out at 5.43%. As for `N#CC1(NC(=O)CSc2nncn2-c2ccccc2F)CCCC1`, the cell number change is -17.1%. Also, the AC50 under setting [1] was 0.461 µM [falling, full curve, poor fit]. Take `COc1ccc(NC(=O)c2cc(S(=O)(=O)N3CCCCC3)c[nH]2)cc1Cl`: the cell number change is 33.5%. Besides, the concentration at half-maximal activity (AC50) under setting [2] was 0.116 µM [rising, full curve, poor fit]. For the same compound, the AC50 under setting [1] is 0.651 µM [falling, partial curve, poor fit]. Turning to `COC(=O)CCC(=O)N1CCCC(C(=O)c2cc(F)ccc2F)C1` (configuration not stated), the cell number change is -15.7%. Under setting [1], the AC50 was 0.164 µM [falling, full curve, poor fit]. Turning to `CCOC(=O)C1C(=O)C=C(c2ccc(Br)cc2)CC1c1ccco1` (configuration not stated), the cell number change was -5.72%. Moreover, under setting [1], the AC50 is 0.0231 µM [rising, full curve, poor fit].

Consider `Cn1c(C(=O)N2CCCC(C(=O)NCCCSC3CCCCC3)C2)cc2sccc21` (configuration not stated), for which the cell number change was -35.1%. Under setting [2], the half-maximal activity concentration (AC50) is 25.9 µM [falling, partial curve]. Further, the AC50 under setting [1] was 25.9 µM [falling, partial curve].

In the case of `COc1ccc(CCC(=O)N2CCN(S(=O)(=O)c3ccc(C)cc3)CC2)cc1`, the cell number change is -38.8%. Further, the concentration at half-maximal activity (AC50) under setting [2] is 5.8 µM [falling, full curve, poor fit]. Besides, the concentration at half-maximal activity (AC50) under setting [1] was 4.61 µM [falling, full curve, poor fit]. For the compound `O=C(CN1C2=NCCCN2c2ccccc21)c1ccc(Cl)cc1Cl`, the cell number change came to 1.05%. In the case of `Cc1cc(NC(=O)CCCN2C(=O)/C(=C/c3cccs3)SC2=S)no1`, under setting [2], the AC50 is 6.51 µM [rising, single point]. Turning to `O=S(=O)(c1ccc(Cl)c(NC(=S)N/N=C/c2ccc(O)cc2)c1)N1CCOCC1`, the cell number change is -5.68%. Besides, the concentration at half-maximal activity (AC50) under setting [1] was 2.91 µM [rising, partial curve, poor fit]. As to `O=C(CSc1nnc(-c2cccs2)o1)N1CCCCC1`, the cell number change was 7.55%.

`O=C(NCc1ccco1)c1ccc(Cn2c(=O)c3ccccc3n(Cc3ccc(Cl)cc3)c2=O)cc1`: under setting [2], the AC50 is 0.651 µM [rising, single point]. On to `Cc1ccccc1NS(=O)(=O)c1cccc(-c2nnc(-c3ccccc3)o2)c1`, for which the cell number change is -12.1%. Turning to `CCOC(=O)c1c(-c2ccc(F)cc2)csc1NC(=O)CN1C(=O)NC2(CCCCC2C)C1=O` (configuration not stated), the cell number change was -14.9%. The AC50 under setting [1] is 29.1 µM [falling, single point]. Turning to `CCOC(=O)c1ccc2nc(NC(C)=O)sc2c1`, the cell number change was found to be 5.63%. The concentration at half-maximal activity (AC50) under setting [2] is 0.13 µM [rising, full curve, poor fit].

As for `N#CCC(=O)Nc1ccc(C(=O)OC(C(=O)Nc2cc(C(F)(F)F)ccc2Cl)c2ccccc2)cc1` (configuration not stated), the cell number change is -25.6%. Further, the AC50 under setting [1] was 29.1 µM [falling, single point]. Regarding `CCc1nnc(NC(=O)C2=NN(C3CCS(=O)(=O)C3)C(=O)CC2)s1` (configuration not stated), the cell number change is -9.44%. Under setting [1], the AC50 was 4.11 µM [falling, full curve, poor fit].

As for `CC(=O)N1CCN(C(=O)Nc2cccc(C(F)(F)F)c2)CC1`, the cell number change was -4.02%. For the same compound, under setting [2], the AC50 was 0.731 µM [falling, single point]. Further, the AC50 under setting [1] was 3.26 µM [falling, single point]. As for `COC(C(=O)NC(C(C)C)C(C)C)c1ccccc1` (configuration not stated), the cell number change was -19.8%. The concentration at half-maximal activity (AC50) under setting [1] is 29.1 µM [falling, single point]. Regarding `COCCN1CCn2c(nc3cc(NC(=O)c4ccc(OC)cc4)ccc32)C1`, the cell number change was determined as 30%. Further, the AC50 under setting [2] was 4.11 µM [rising, partial curve]. Also, the AC50 under setting [1] was 4.11 µM [rising, full curve].

`O=C(CSc1cccc[n+]1[O-])c1cc2ccccc2o1`: the cell number change was -6.5%. In addition, under setting [2], the AC50 was 0.731 µM [rising, single point]. The half-maximal activity concentration (AC50) under setting [1] was 4.11 µM [rising, partial curve, poor fit]. In the case of `CCSc1sccc1C1C(C#N)=C(N)N(c2cccnc2)C2=C1C(=O)CCC2` (configuration not stated), the cell number change was found to be 121%. Besides, the concentration at half-maximal activity (AC50) under setting [2] is 5.8 µM [rising, partial curve]. Also, the concentration at half-maximal activity (AC50) under setting [1] is 3.26 µM [rising, partial curve]. Take `Cc1ccnc2nc(C(=O)OCC(=O)NC(=O)NCc3ccco3)nn12`: the cell number change is -63.4%. Moreover, under setting [2], the AC50 is 32.6 µM [falling, partial curve, poor fit]. As for `O=C(CCCC(=O)N1CCN(c2ccc([N+](=O)[O-])cc2)CC1)c1ccccc1`, the cell number change is 0.498%. For the same compound, the half-maximal activity concentration (AC50) under setting [1] was 1.84 µM [falling, partial curve]. `CCC(=O)NNC(=O)c1c(O)c2ccccc2[nH]c1=O`: the cell number change amounted to 22.6%. `O=C(NCc1ccc(F)cc1)C1CC(=O)N(C2CCCCC2)C1` (configuration not stated): the cell number change is -7.63%. Besides, the concentration at half-maximal activity (AC50) under setting [1] was 29.1 µM [falling, single point].

In the case of `COc1ccc(CC2C(=O)OC(C)(C)OC2=O)cc1`, the cell number change came to 1.78%. Under setting [1], the concentration at half-maximal activity (AC50) is 0.82 µM [falling, full curve, poor fit]. For `Cn1c(=O)c2c(ncn2CC(O)CNc2ccc(Br)cc2)n(C)c1=O` (configuration not stated), the cell number change was -9.72%. Moreover, under setting [1], the concentration at half-maximal activity (AC50) is 20.6 µM [rising, partial curve, poor fit]. As to `CCN(CC)CCN1CCn2c3c(c4cc(C)ccc42)CCCC31` (configuration not stated), under setting [1], the AC50 was 11.6 µM [rising, partial curve, poor fit]. With `O=C(O)c1cc(S(=O)(=O)N2CCCCC2)ccc1N1CCCCC1`, the cell number change was 0.373%. For `Cc1cccc(OCC(=O)Nc2ccccc2N2CCCCC2)c1C`, the concentration at half-maximal activity (AC50) under setting [2] is 0.58 µM [rising, single point]. For `COCCn1c(C2CCCCC2)nc2sc3ccccc3c(=O)c2c1=O`, the cell number change was -39.5%. Also, the half-maximal activity concentration (AC50) under setting [2] was 29.1 µM [falling, single point]. Consider `CCOc1ccc(N2CC(C(=O)Nc3ccc(S(=O)(=O)N4CCCC4)cc3)CC2=O)cc1` (configuration not stated), for which the cell number change is 20.7%. As for `CCn1cc(C(=O)NCCCN2CCC(C)CC2)c(=O)c2cc(S(=O)(=O)N(C)C3CCCCC3)ccc21`, the cell number change was determined as 8.75%. For the same compound, under setting [1], the half-maximal activity concentration (AC50) was 6.51 µM [rising, partial curve, poor fit].

On to `Cn1c(=O)n(C)c2cc(S(=O)(=O)N3CCCCC3)ccc21`, for which the cell number change is -2.94%. Also, the concentration at half-maximal activity (AC50) under setting [1] was 16.4 µM [rising, partial curve]. Consider `FC(F)(F)c1cnc(Sc2ncn[nH]2)c(Cl)c1`, for which the cell number change is -15.3%. Also, the half-maximal activity concentration (AC50) under setting [1] was 5.17 µM [falling, full curve]. For `O=C(N/N=C/C1=C(N2CCOCC2)C(=C\c2ccccc2)/CC1)Nc1ccccc1`, the cell number change was found to be 8.01%. The AC50 under setting [2] was 3.66 µM [rising, single point]. In addition, the half-maximal activity concentration (AC50) under setting [1] was 5.8 µM [rising, partial curve].

As to `Cc1cccc(C(=O)Nc2ccc(C(=O)/C=C/c3cccs3)cc2)c1`, the cell number change is -38.9%. For the same compound, the AC50 under setting [2] is 13 µM [falling, partial curve]. Further, the half-maximal activity concentration (AC50) under setting [1] is 18.4 µM [falling, single point]. Take `Cc1ccc(C(=O)OCN2C(=O)c3ccccc3C2=O)cc1S(=O)(=O)N1CCOCC1`: the cell number change is -32.5%. In addition, the half-maximal activity concentration (AC50) under setting [2] is 29.1 µM [falling, single point]. Moreover, the half-maximal activity concentration (AC50) under setting [1] is 29.1 µM [falling, single point].

As to `O=C(CSc1nnc(-c2cccnc2)n1Cc1ccco1)c1ccc(Cl)c(Cl)c1`, the cell number change is -10.6%. In addition, the AC50 under setting [1] was 2.06 µM [rising, partial curve].

Take `CCOc1ccc(NC(=O)CSCc2cnn(-c3ccccc3)c2-n2cccc2)cc1`: under setting [1], the half-maximal activity concentration (AC50) was 0.651 µM [rising, single point]. Regarding `CCN(CC)S(=O)(=O)c1ccc(NC(=O)COC(=O)c2ccc(NC(=O)CC#N)cc2)cc1`, the cell number change turned out to be 5.25%. Under setting [2], the half-maximal activity concentration (AC50) is 0.13 µM [falling, single point]. In addition, under setting [1], the AC50 is 0.116 µM [falling, partial curve, poor fit]. For `COc1cccc(OCC(=O)O/N=C(\N)c2ccc(OC)c(OC)c2)c1`, the cell number change was found to be 3.64%. In addition, the AC50 under setting [1] was 25.9 µM [rising, partial curve, poor fit]. As to `CC(CC(=O)NC(C)c1ccc2c(c1)OCCO2)c1ccccc1` (configuration not stated), the cell number change is -15.9%. In addition, under setting [1], the half-maximal activity concentration (AC50) is 0.517 µM [falling, full curve, poor fit].

Regarding `CCOC(=O)/C(C#N)=C1/C=CN(c2ccc(C)cc2)C=N1`, under setting [2], the AC50 was 1.46 µM [rising, partial curve].

Take `COc1ccc(NC(=O)C2CCCN(C(=O)Nc3ccc(F)cc3)C2)cc1OC` (configuration not stated): the cell number change is -11.1%. As to `Cc1nn(C)c(C)c1N1C(=O)c2cccc3c(N)ccc(c23)C1=O`, the cell number change was -94%. Further, the AC50 under setting [2] was 20.6 µM [falling, single point]. For the same compound, the AC50 under setting [1] is 20.6 µM [falling, partial curve].

The values above are taken from PubChem BioAssay AID2685 (National Center for Advancing Translational Sciences (NCATS), 2010).
